The values below come from US20050208487A1.

For at least one entry, the source does not settle the construct or the ends of the probe. For some assays here: Whether high values mean tight binding is not given here for every scale.

In data set [1] the target is GnRH (gonadotropin-releasing hormone, L-decapeptide Pyr-His-Trp-Ser-Tyr-Gly-Leu-Arg-Pro-Gly-NH2) (UniProt Q28588). Nature of the data set: pull-down. The note with it: buffer A, RT, synthetic protein, mirror-image nucleic acid, variant of GnRH-binding DNA Spiegelmer 1.
Data set [2] shares this target. Nature of the data set: binding assay. The settings on record: L-DNA (all nucleotides); equilibrium dialysis, 10 uM Spiegelmer, twice purified 3H-GnRH, 87±2%; 41% with unpurified GnRH; buffer A; synthetic protein; synthetic backbone; mirror-image nucleic acid. On the technique in general: In equilibrium dialysis free small molecules cross a membrane that holds back macromolecules.

As to “GCGGCGGAGGGTGGGCTGGGGCTGGGCCGGGGGGCGTGCGTAAGCACGTAGCCTCGCCGC [DNA Spiegelmer 4 (5'-phosphorylated)]”, the binding signal (% radioactivity retained) in data set [1] (L-DNA (all nucleotides), 5'-spacer 9 and 5'-phosphate, CPG 3000, 20.7% eluted, background 2.3%, 73% retained with twice purified GnRH (p128), label: covalently on 3000A lcaa-CPG, synthetic backbone) is 23. As for “GCGGCGGAGGGTGGGCTGGGGCTGGGCCGGGGGGCGTGCGTAAGCACGTAGCCTCGCCGC [D-enantiomer of the GnRH Spiegelmer]”, the binding signal (% radioactivity retained) in data set [1] (D-enantiomer control on Sepharose, 0.8% eluted, no interaction with GnRH, label: on NHS Sepharose 4 Fast Flow, single-stranded DNA, counted as no binding) came out at 4.2. “GCGGCGGAGGGTGGGCTGGGGCTGGGCCGGGGGGCGTGCGTAAGCACGTAGCCTCGCCGC [GnRH-binding DNA Spiegelmer 1]” had a binding signal in data set [2] of 87 % bound. Consider “GCGGCGGAGGGTGGGCTGGGGCTGGGCCGGGGGGCGTGCGTAAGCACGTAGCCTCGCCGC [DNA Spiegelmer 3 (5'-aminohexyl)]”, for which the binding signal (% radioactivity retained) in data set [1] (L-DNA (all nucleotides), 5'-aminohexyl, Sepharose, 34% eluted, background 6%, 45% pure 3H-GnRH so about 89% of GnRH, 89% retained with twice purified GnRH (p128), label: covalently on NHS Sepharose 4 Fast Flow, synthetic backbone) is 40.

Regarding “GCGGCGGAGGGTGGGCTGGGGCTGGGCCGGGGGGCGTGCGTAAGCACGTAGCCTCGCCGC [DNA Spiegelmer 2 (5'-biotinylated)]”, in data set [1] (L-DNA (all nucleotides), neutravidin agarose, 34.5% eluted, background 2%, about 81% of GnRH, label: 5'-biotin, on neutravidin agarose, synthetic backbone), the binding signal (% radioactivity retained) turned out to be 36.5.
